Measurements reported in PubChem BioAssay AID1224830 (NIAID, 2016)

Aim: 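Host factors that control LPS-induced TNF expression in human macrophages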 (primary screen)
Cells: human THP-1 monocytic leukaemia cells, TNF dual-luciferase reporter clone, PMA-differentiated to macrophage-like cells
Knock-down reagent: siRNA pool against human genes, 50 nM
Timing: LPS for 4 h, given about 3 days after siRNA transfection
Challenge: bacterial LPS (TLR4 ligand), 10 ng/ml
Read-out: 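Ratio of firefly to renilla light, scaled to the plate median and expressed as a robust z-score per replicate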
Reading the numbers: TNF reporter robust z-score: higher = stronger TNF reporter response to LPS
Call rule: 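Each well counts as active if its z-score is over 2.8 or under -1.5; controls are left without a call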
This is one part, drawn at random, of about 18,000 deposited reagents. About 2,900 of them (16%) were called active. 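Calls are made per well; low scores hint the gene aids the LPS response, high scores that it dampens it.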 A number with no mark means an inactive call. Repeated entries: four replicate wells of each siRNA pool. No sequences are given here.

ERF (ETS2 repressor factor) — TNF reporter robust z-score: -0.17
ERF (ETS2 repressor factor) — TNF reporter robust z-score: 0.74
ERF (ETS2 repressor factor) — TNF reporter robust z-score: 0.85
ERF (ETS2 repressor factor) — TNF reporter robust z-score: 0.25
DAPK1 (death associated protein kinase 1) — TNF reporter robust z-score: -0.09
DAPK1 (death associated protein kinase 1) — TNF reporter robust z-score: -0.58
DAPK1 (death associated protein kinase 1) — TNF reporter robust z-score: -0.62
DAPK1 (death associated protein kinase 1) — TNF reporter robust z-score: 0.38
WNT16 (Wnt family member 16) — TNF reporter robust z-score: -0.41
WNT16 (Wnt family member 16) — TNF reporter robust z-score: 1.18
WNT16 (Wnt family member 16) — TNF reporter robust z-score: -0.55
WNT16 (Wnt family member 16) — TNF reporter robust z-score: 1.04
TAL1 — TNF reporter robust z-score: -0.57
TAL1 — TNF reporter robust z-score: 0
TAL1 — TNF reporter robust z-score: -0.62
TAL1 — TNF reporter robust z-score: 0.4
LYPLAL1 (lysophospholipase like 1) — TNF reporter robust z-score: 0.1
LYPLAL1 (lysophospholipase like 1) — TNF reporter robust z-score: 0.28
LYPLAL1 (lysophospholipase like 1) — TNF reporter robust z-score: 0.64
LYPLAL1 (lysophospholipase like 1) — TNF reporter robust z-score: 0.54
LUC7L (LUC7 like) — TNF reporter robust z-score: -1.02
LUC7L (LUC7 like) — TNF reporter robust z-score: -1.01
LUC7L (LUC7 like) — TNF reporter robust z-score: -1.25
LUC7L (LUC7 like) — TNF reporter robust z-score: -1.14
OR5J2 (olfactory receptor family 5 subfamily J member 2) — TNF reporter robust z-score: -0.47
OR5J2 (olfactory receptor family 5 subfamily J member 2) — TNF reporter robust z-score: 0.3
OR5J2 (olfactory receptor family 5 subfamily J member 2) — TNF reporter robust z-score: 0.07
OR5J2 (olfactory receptor family 5 subfamily J member 2) — TNF reporter robust z-score: -0.52
MYLK3 (myosin light chain kinase 3) — TNF reporter robust z-score: 0.39
MYLK3 (myosin light chain kinase 3) — TNF reporter robust z-score: 0.62
MYLK3 (myosin light chain kinase 3) — TNF reporter robust z-score: 0.72
SREBF1 (sterol regulatory element binding transcription factor 1) — TNF reporter robust z-score: -0.34
SREBF1 (sterol regulatory element binding transcription factor 1) — TNF reporter robust z-score: 1.04
SREBF1 (sterol regulatory element binding transcription factor 1) — TNF reporter robust z-score: -0.95
SREBF1 (sterol regulatory element binding transcription factor 1) — TNF reporter robust z-score: 0.99
TMEM106B (transmembrane protein 106B) — TNF reporter robust z-score: -0.54
TMEM106B (transmembrane protein 106B) — TNF reporter robust z-score: 0.16
TMEM106B (transmembrane protein 106B) — TNF reporter robust z-score: -0.13
ERLEC1 (endoplasmic reticulum lectin 1) — TNF reporter robust z-score: 1.27
ERLEC1 (endoplasmic reticulum lectin 1) — TNF reporter robust z-score: 2
ERLEC1 (endoplasmic reticulum lectin 1) — TNF reporter robust z-score: 1.1
ERLEC1 (endoplasmic reticulum lectin 1) — TNF reporter robust z-score: -0.13
HIRIP3 (HIRA interacting protein 3) — TNF reporter robust z-score: -0.6
HIRIP3 (HIRA interacting protein 3) — TNF reporter robust z-score: 1.07
HIRIP3 (HIRA interacting protein 3) — TNF reporter robust z-score: 0.26
HIRIP3 (HIRA interacting protein 3) — TNF reporter robust z-score: 0.16
RAD21 (RAD21 cohesin complex component) — TNF reporter robust z-score: -0.77
RAD21 (RAD21 cohesin complex component) — TNF reporter robust z-score: -1.19
RAD21 (RAD21 cohesin complex component) — TNF reporter robust z-score: -1.05
RAD21 (RAD21 cohesin complex component) — TNF reporter robust z-score: -1.08

Part of the list above in another layout.
gene symbol,TNF reporter robust z-score
DAPK1 (death associated protein kinase 1),-0.58
DAPK1 (death associated protein kinase 1),-0.62
DAPK1 (death associated protein kinase 1),0.38
WNT16 (Wnt family member 16),-0.41
WNT16 (Wnt family member 16),1.18
WNT16 (Wnt family member 16),-0.55
WNT16 (Wnt family member 16),1.04
TAL1,-0.57
